Earlier results as cited in patent US20240253033A1, “MICROFLUIDIC DETECTION SYSTEM WITH ADJUSTABLE FLOW CONTROL” (priority 2022, published 2024).

Tested on: serum proteins
Settings: human serum; cited from earlier work

SMILES: O=C(O)c1cn(C2CC2)c2cc(N3CCNCC3)c(F)cc2c1=O [Ciprofloxacin]
- drug bounded to serum proteins: 28%
